Literature values, collected in US20020022057A1, “Oral delivery of pharmaceuticals via encapsulation” (priority 2000, published 2002).
For at least one compound, name, drawing or mass did not settle the structure.

Details: sublingual versus oral

## C[C@]12CC[C@@H]3c4ccc(O)cc4CC[C@H]3[C@@H]1CC[C@@H]2O [estradiol]
  more effective sublingually than orally: ten to twenty
